Measurements from PubChem BioAssay AID720504 (National Center for Advancing Translational Sciences (NCATS), 2013).
The whole screen tested about 360,000 compounds, of which about 10,000 (2.8%) were called active. Inconclusive results, whose numbers are uncertain, are shown with a selection of clear calls. The call rests on the fitted dose curve; in most records, active means well fitted inhibition curve with a large enough effect; inconclusive means small, poorly fitted or top-dose-only effect; inactive means flat fitted curve, though single readings scatter. Potencies beside an inconclusive call are fits to weak or partial responses and may not hold up.

Chains of the proteins cited; added tags and fusions are not shown.
UniProt P53350, whole entry, looked up: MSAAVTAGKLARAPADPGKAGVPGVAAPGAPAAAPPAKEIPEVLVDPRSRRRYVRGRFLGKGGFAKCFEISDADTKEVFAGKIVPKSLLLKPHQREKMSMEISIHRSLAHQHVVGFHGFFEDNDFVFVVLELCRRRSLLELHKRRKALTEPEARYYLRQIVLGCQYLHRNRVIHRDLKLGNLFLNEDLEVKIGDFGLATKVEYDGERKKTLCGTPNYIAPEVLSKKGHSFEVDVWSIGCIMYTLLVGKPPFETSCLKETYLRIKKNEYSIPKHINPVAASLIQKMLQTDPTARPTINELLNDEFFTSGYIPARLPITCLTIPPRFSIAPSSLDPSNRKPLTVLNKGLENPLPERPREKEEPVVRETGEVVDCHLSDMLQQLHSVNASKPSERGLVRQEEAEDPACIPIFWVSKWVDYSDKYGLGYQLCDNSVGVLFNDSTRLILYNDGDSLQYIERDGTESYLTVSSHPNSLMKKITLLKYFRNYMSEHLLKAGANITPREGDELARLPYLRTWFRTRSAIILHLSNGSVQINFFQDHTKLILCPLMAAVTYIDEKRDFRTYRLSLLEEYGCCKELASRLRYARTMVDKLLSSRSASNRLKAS

biological target: Serine/threonine-protein kinase PLK1 (Homo sapiens) (UniProt P53350); test: qHTS for Inhibitors of PLK1-PDB (polo-like kinase 1 - polo-box domain): Primary Screen; settings: Plk1 PBD binding of FITC phosphopeptide, fluorescence polarization; further: nearly all actives have a fitted effect of over 65% in size; on max response, negative = inhibition: series mostly up to about 57 µM
On the % scale 0 is the no-effect control and ±100 the full control effect; potency means the concentration at half of the fitted maximal effect.

| SMILES | Potency | max response, negative = inhibition |
| --- | --- | --- |
| CC(=O)Nc1ccc(NC(=O)C(C)OC(=O)CNC(=O)c2sc3ccccc3c2Cl)cc1 (stereo not given) | inconclusive: 16.8 µM [inhibitor, partial curve] | – |
| Cc1cc(C(=O)COC(=O)c2cc(Cl)c(O)c(Cl)c2)c(C)n1C | inconclusive: 33.6 µM [inhibitor, partial curve] | – |
| CCOC(=O)Cc1csc(NC(=O)c2c(O)c3c(n(CC(C)C)c2=O)CCCC3)n1 | – | inactive: 1.48% |
| CC(=O)Nc1ccc(SCC(=O)c2c(N)n(Cc3ccccc3)c(=O)n(C)c2=O)cc1 | inconclusive: 26.7 µM [inhibitor, partial curve] | – |
| O=C(NC1CC1)C1CCN(S(=O)(=O)c2ccc(Cl)cc2)CC1 | – | inactive: -1.25% |
| COc1cc(/C=C/C(=O)c2ccccc2O)cc(OC)c1OC | – | inconclusive: -32.5% [inhibitor] |
| O=C(COC(=O)Cc1ccc(Cl)cc1)Nc1ccc(OC(F)F)cc1 | inconclusive: 26.7 µM [inhibitor, partial curve] | – |
| CC1=NN(C(N)=S)C(=O)C1N=Nc1c(Cl)cc([N+](=O)[O-])cc1Cl (stereo not given) | inconclusive: 15 µM [inhibitor, partial curve] | – |
| Cc1ccc(C)c(C(=O)CSc2n[nH]c(C(C)C)n2)c1 | inconclusive: 29.9 µM [inhibitor, single point] | – |
| COc1ccc(C)cc1NC(=O)C(=O)NNC(=O)COc1ccc(Cl)cc1 | – | inactive: -6.26% |
| Cc1c(OCC(=O)N[C@@H](Cc2c[nH]c3ccccc23)C(=O)O)ccc2c1oc(=O)c1ccccc12 | inconclusive: 75.2 µM [inhibitor, partial curve] | – |
| COCC(C)N1CCC(Oc2ccc(C(=O)N3CCCC3)cc2)CC1 (stereo not given) | – | inactive: 1.18% |
| COc1ccc2c(c1)nc(SCC(=O)c1ccc(Br)s1)n2C | inconclusive: 23.8 µM [inhibitor, partial curve] | – |
| COc1ccc(NC(=S)N2CCN(C(=O)c3ccco3)CC2)c(OC)c1 | inconclusive: 26.7 µM [inhibitor, partial curve] | – |
| O=C(Nc1cccc(C(=O)O)c1)/C(=C/c1ccc2c(c1)OCO2)NC(=O)c1cccc(Br)c1 | – | inactive: -17.9% |
| COc1ccc(CSCCc2n[nH]c(=S)n2-c2ccccc2)cc1 | – | inactive: -15.2% |
| CN(C(=O)c1cccc(NC(=O)Cc2cccc([N+](=O)[O-])c2)c1)C1CC1 | – | inactive: -5.83% |
| O=[N+]([O-])c1ccc2c([N+](=O)[O-])ccc3c2c1CC3 | inconclusive: 26.7 µM [inhibitor, single point] | – |
| Cc1ccc(Oc2ccccc2/C=N/O)cc1 | active: 3.36 µM | – |
| Cc1ccc2cc(C3CC(c4ccco4)=NN3C(=O)CCC(=O)O)c(Cl)nc2c1 (stereo not given) | inconclusive: 37.7 µM [inhibitor, single point] | – |
| Cc1nc(NC(=O)c2ccc([N+](=O)[O-])cc2Cl)sc1C(=O)N(C)C | active: 18.9 µM | – |
| CCC(CC)C(=O)N(c1ccc(F)cc1)C1C=CS(=O)(=O)C1 (stereo not given) | – | inactive: -4.62% |
| CCNS(=O)(=O)c1ccc(CCC(=O)NCc2ccccn2)cc1 | – | inactive: -11.4% |
| O=C(O)c1cc(S(=O)(=O)Nc2cc(Cl)ccc2Oc2ccccc2)ccc1O | – | inconclusive: -32.3% [inhibitor] |

| SMILES | Potency | max response, negative = inhibition |
| --- | --- | --- |
| Cc1ccc(S(=O)(=O)Cc2ccc(C(=O)N3CCc4ccccc4C3)o2)cc1 | inconclusive: 29.9 µM [inhibitor, partial curve] | – |
| COc1ccc(CSC(=S)NNc2ccccc2)cc1 | inconclusive: 15 µM [inhibitor, partial curve] | – |
| COC(=O)c1cccc(NC(=O)C(C)N2C(=O)c3ccccc3C2=O)c1 (stereo not given) | inconclusive: 26.7 µM [inhibitor, single point] | – |
| CC(C)(C)NC(=O)C(c1cccc2ccccc12)n1c(=O)c(-c2ccco2)nc2ccccc21 (stereo not given) | inconclusive: 29.9 µM [inhibitor, single point] | – |
| Fc1cccc(C2NN=C(c3ccccc3)S2)c1 (stereo not given) | inconclusive: 29.9 µM [inhibitor, partial curve] | – |
| CCC(C)NC(=O)Cn1cc(S(=O)(=O)N2CCCC2)c(S(=O)(=O)N2CCCC2)c1 (stereo not given) | inconclusive: 23.8 µM [inhibitor, single point] | – |
| CC[C@@H](C)[C@H](NC(=O)OC(C)(C)C)c1nnc(S(=O)(=O)Cc2cc(C)ccc2C)o1 | active: 5.97 µM | – |
| COc1cc(C2C=C(c3cccs3)Nc3ncnn32)cc(OC)c1OC (stereo not given) | inconclusive: 26.7 µM [inhibitor, single point] | – |
| Cc1ccc(S(=O)(=O)N(C)C)cc1NC(=O)C1CCCCN1S(=O)(=O)c1ccccc1 (stereo not given) | inconclusive: 21.2 µM [inhibitor, partial curve] | – |
| CCCCc1nc(NCCNC(=O)c2ccccc2)c(C#N)c2c1CSC(C)(C)C2 | – | inactive: -11.4% |
| CNc1c2cccc(C)c2nc2c(C(=O)NCCN(C)C)cccc12 | active: 16.8 µM | – |
| Cc1oc(-c2ccccc2F)nc1CS(=O)CC(=O)NCc1ccccn1 (stereo not given) | inconclusive: 26.7 µM [inhibitor, partial curve] | – |
| Cc1nc(SCC(=O)Nc2ccc(Cl)cc2[N+](=O)[O-])nc(C)c1C | – | inconclusive: -33.8% [inhibitor] |
| CN1C(=O)C(Cl)(Cl)C(=O)c2ccccc21 | active: 11.9 µM | – |
| COc1cc(C(=S)N2CCCC2)cc(Cl)c1O | – | inconclusive: -31% [inhibitor] |
| Cc1c(NC(=S)/C=C2\N(C)c3ccccc3C2(C)C)c(=O)n(-c2ccccc2)n1C | inconclusive: 26.7 µM [inhibitor, partial curve] | – |
| O=C(/C=C/c1ccccc1F)c1cccc([N+](=O)[O-])c1 | inconclusive: 23.8 µM [inhibitor, single point] | – |
| O=C(c1ccccc1)c1ccccc1C(=O)N1CCN(C(=O)c2ccccc2)CC1 | inconclusive: 16.8 µM [inhibitor, partial curve] | – |
| CC(C)(C)C(=O)Nc1nc(=S)ss1 | inconclusive: 26.7 µM [inhibitor, partial curve] | – |
| CCOc1ccc(OCC)c(NC(=O)C2CCN(S(=O)(=O)c3cnc[nH]3)CC2)c1 | – | inconclusive: -35.4% [inhibitor] |
| COc1ccc(S(=O)(=O)NCCSC(C)(C)C)cc1Cl | – | inactive: 4.08% |
| Nc1c(-c2ccc(C(F)(F)F)cc2)nc2ncccn12 | – | inactive: 5.73% |
| Cn1nc(C(C)(C)C)cc1NC(=O)Nc1ccc(F)cc1F | inconclusive: 37.7 µM [inhibitor, single point] | – |
| COCCNc1c([N+](=O)[O-])c(=O)n(-c2ccccc2)c2ccccc12 | inconclusive: 18.9 µM [inhibitor, partial curve] | – |

| SMILES | Potency | max response, negative = inhibition |
| --- | --- | --- |
| Cc1c(C(=O)O)cnc2c([N+](=O)[O-])cnn12 | active: 3.36 µM | – |
| Cc1cc(Br)cn2c(Cc3cccc(F)c3)c(-c3cccc(Br)c3)nc12 | inconclusive: 26.7 µM [inhibitor, single point] | – |
| CC(=O)C(C)Oc1cc(C)cc2oc(=O)c(C)c(C)c12 (stereo not given) | inconclusive: 26.7 µM [inhibitor, single point] | – |
| COc1ccc(OC)c(NC(=O)CSc2ccc(-c3ccco3)nn2)c1 | inconclusive: 26.7 µM [inhibitor, partial curve] | – |
| COc1ccc(OCC(=O)NC(=S)N2CCCc3ccccc32)cc1 | – | inconclusive: -36.6% [inhibitor] |
| COc1ccc(-n2ccnc(SCC(=O)NC3CCCCC3)c2=O)cc1 | – | inconclusive: -33.9% [inhibitor] |
| O=C(CSc1ccc2c(c1)OCCO2)NC(=O)NC1CCCC1 | inconclusive: 26.7 µM [inhibitor, partial curve] | – |
| Cc1cc(C)cc(NC(=O)c2cccc(C(=O)Nc3cc(C)cc(C)c3)n2)c1 | – | inactive: -6.94% |
| COCc1nnc(NC(=O)CCCOc2ccccc2)s1 | – | inactive: -1.89% |
| Nc1nc(SCC(=O)NCCN2CCOCC2)nc2sc3c(c12)CCC3 | inconclusive: 29.9 µM [inhibitor, partial curve] | – |
| CCCC1C(C#N)=C(N)Oc2n[nH]c(C(C)(C)C)c21 (stereo not given) | active: 6.7 µM | – |
| O=C(Nc1nnc(SCc2ccccc2)s1)c1cccs1 | inconclusive: 23.8 µM [inhibitor, partial curve] | – |
| c1ccc(CNCCN2CCNCC2)nc1 | – | inactive: -0.362% |
| CCC(C(=O)NCC1CCCO1)N(Cc1ccc(F)cc1)C(=O)CNS(=O)(=O)c1ccccc1 (stereo not given) | inconclusive: 26.7 µM [inhibitor, single point] | – |
| COc1ccccc1NC1=Nc2cccc3cccc1c23 | – | inactive: -1.35% |
| COc1ccc(SC2=C[C@@]3(O)CC[C@@H](O)[C@@](Sc4ccc(OC)cc4)(C2=O)[C@H]3O)cc1 | inconclusive: 16.8 µM [inhibitor, single point] | – |
| COc1cc(C)cc(C(=O)O)c1C1=C(O)c2cccc(O)c2C(=O)C1=O | inconclusive: 26.7 µM [inhibitor, partial curve] | – |
| Cc1ccc(NS(=O)(=O)c2cc([N+](=O)[O-])ccc2NNC(=S)Nc2cc(C)ccc2C)c(C)c1 | inconclusive: 37.7 µM [inhibitor, single point] | – |
| COc1cc(OC)c(C(=S)N2CCCC2)cc1OC | active: 11.9 µM | – |
| S=C(c1ccc(Br)cc1)N1CCN(Cc2ccccc2)CC1 | active: 6.7 µM | – |
| NC(=O)[C@@H]1[C@@H]2C(=O)N(c3ccc(F)cc3)C(=O)[C@@H]2[C@H]2C=Cc3ccccc3N21 | inconclusive: 13.4 µM [inhibitor, partial curve] | – |
| COc1ccc(CCN(C)Cc2c(O)ccc3cc(Br)ccc23)cc1OC | inconclusive: 33.6 µM [inhibitor, single point] | – |

5 entries picked at random from the list so far:

| SMILES | Potency | max response, negative = inhibition |
| --- | --- | --- |
| COc1ccc(CCN(C)Cc2c(O)ccc3cc(Br)ccc23)cc1OC | inconclusive: 33.6 µM [inhibitor, single point] | – |
| CCCC1C(C#N)=C(N)Oc2n[nH]c(C(C)(C)C)c21 (stereo not given) | active: 6.7 µM | – |
| CCC(C(=O)NCC1CCCO1)N(Cc1ccc(F)cc1)C(=O)CNS(=O)(=O)c1ccccc1 (stereo not given) | inconclusive: 26.7 µM [inhibitor, single point] | – |
| O=C(COC(=O)Cc1ccc(Cl)cc1)Nc1ccc(OC(F)F)cc1 | inconclusive: 26.7 µM [inhibitor, partial curve] | – |
| CC1=NN(C(N)=S)C(=O)C1N=Nc1c(Cl)cc([N+](=O)[O-])cc1Cl (stereo not given) | inconclusive: 15 µM [inhibitor, partial curve] | – |
